At least one structure is not confirmed: it was looked up by name or label, or the drawing left a doubt. Numbered stars: 1 amine (or outer) side, 2 acyl side, 3 side chain; on linkers, the order of the positions; unused ones are H or OH. Square brackets hold non-standard residues; d marks the D form. Peptide text beside a SMILES is read from it. X3 = Nc1ncnc2c1c(-c1ccccc1)nn2C(=O)CNC[C@H](N[*:1])C(=O)[*:2]
Target: Src (Homo sapiens, UniProt P12931)
Experiment: Radioactive kinase assay, polyE4Y phosphorylation by Src (peptides, N-heteroaromatics and conjugates)
Type: biochemical
Settings: read-out: IC50, inhibition of polyE4Y phosphorylation by Src

Chains of the proteins cited; added tags and fusions are not shown.
UniProt P12931, whole entry, species assumed: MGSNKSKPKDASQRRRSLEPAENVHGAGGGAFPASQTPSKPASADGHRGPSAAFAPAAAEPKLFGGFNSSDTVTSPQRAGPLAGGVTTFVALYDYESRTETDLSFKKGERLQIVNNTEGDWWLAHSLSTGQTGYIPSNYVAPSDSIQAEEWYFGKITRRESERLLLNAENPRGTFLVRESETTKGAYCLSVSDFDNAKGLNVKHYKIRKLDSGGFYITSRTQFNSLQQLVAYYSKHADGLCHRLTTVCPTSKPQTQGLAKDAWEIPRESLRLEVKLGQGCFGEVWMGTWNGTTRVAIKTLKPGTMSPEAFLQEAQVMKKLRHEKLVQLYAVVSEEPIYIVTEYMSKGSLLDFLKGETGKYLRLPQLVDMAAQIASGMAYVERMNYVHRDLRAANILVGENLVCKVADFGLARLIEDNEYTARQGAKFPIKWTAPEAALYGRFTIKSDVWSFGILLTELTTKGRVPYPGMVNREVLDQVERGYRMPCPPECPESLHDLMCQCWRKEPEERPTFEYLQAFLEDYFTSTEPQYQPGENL

CC[C@H](C)[C@H](NC(=O)[C@H](CNCC(=O)n1nc(-c2ccccc2)c2c(N)ncnc21)NC(C)=O)C(=O)N[C@@H](Cc1ccc(O)cc1)C(=O)N[C@@H](CCCCN)C(=O)N[C@@H](Cc1ccc(O)cc1)C(=O)N[C@@H](Cc1ccc(O)cc1)C(=O)O [Compound 48] (Ac-[X3]IYKYY-OH)
IC50: 64 µM
